PubChem BioAssay AID1159578 | Peter MacCallum Cancer Centre, 2015
Test: 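Genome-wide hunt for genes controlling movement of lymphatic endothelial cells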 (primary screen). Cells: human lymphatic endothelial cells. Reagent: siRNA pool against human genes, 40 nM. Time to read-out: 48 h after transfection. Detection: 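Cells stained with dye and imaged after a scratch; covered wound area and nuclei counted, duplicates averaged, migration set against mock wells and turned into a robust z-score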. Direction: migration robust z-score: higher = faster migration into the scratch; migration relative to mock: higher = more scratch area covered than mock; nuclei per well: higher = more cells in the well. Active means: 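Pools averaging fewer than 3300 nuclei are never called; remaining pools count as changed when migration robust z lies outside -2 to 2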. Meaning of the calls: active = migration changed; inactive = no migration change, or too few cells.
In all, the deposit lists about 18,000 reagents; shown is a part drawn at random. About 1,030 of them (5.7%) count as active. 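Inactive calls also include pools with fewer than 3300 nuclei, whose migration was not assessed.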 Raw values are not corrected between plates. A number with no mark means an inactive call.

| gene | PubChem SID | migration robust z-score | migration class with cell-count check | migration relative to mock | nuclei per well, duplicate mean |
| --- | --- | --- | --- | --- | --- |
| SMR3B | SID255355411 | -2.74 | under 3300 nuclei; migration not judged | 0.18 | 2781 |
| EPS15L1 | SID255359655 | 1.49 | migration z between -2 and 2; enough cells | 1.27 | 5918 |
| RSPO2 | SID255365085 | 0.64 | migration z between -2 and 2; enough cells | 1.05 | 6340 |
| CATIP | SID255365364 | -1.6 | migration z between -2 and 2; enough cells | 0.46 | 5102 |
| TLDC2 | SID255363130 | 0.05 | migration z between -2 and 2; enough cells | 0.9 | 5778 |
| DCTPP1 | SID255360201 | 0.55 | migration z between -2 and 2; enough cells | 1.03 | 6218 |
| PHKA2 | SID255351555 | -1.63 | migration z between -2 and 2; enough cells | 0.49 | 5667 |
| GPR85 | SID255357989 | 0.36 | migration z between -2 and 2; enough cells | 0.88 | 4296 |
| SLC38A2 | SID255357999 | 0.32 | migration z between -2 and 2; enough cells | 0.86 | 6327 |
| TMC4 | SID255363342 | -0.92 | migration z between -2 and 2; enough cells | 0.64 | 5733 |
| TUBB3 | SID255355032 | 0.48 | migration z between -2 and 2; enough cells | 1.01 | 6413 |
| USP12 | SID255364156 | 0.34 | migration z between -2 and 2; enough cells | 0.87 | 4740 |
| UBA5 | SID255360536 | -0.67 | migration z between -2 and 2; enough cells | 0.67 | 4384 |
| PER3 | SID255353876 | 0.72 | migration z between -2 and 2; enough cells | 1.07 | 5884 |
| OR51I2 | SID255365602 | -1.64 | migration z between -2 and 2; enough cells | 0.46 | 6577 |
| CCDC144BP | SID255364731 | 0.15 | migration z between -2 and 2; enough cells | 0.92 | 5345 |
| NASP | SID255351144 | 0.02 | migration z between -2 and 2; enough cells | 0.89 | 6494 |
| SPDYE1 | SID255364888 | 0.66 | migration z between -2 and 2; enough cells | 1.06 | 5802 |
| ZDHHC13 | SID255358048 | -0.52 | migration z between -2 and 2; enough cells | 0.75 | 6332 |
| FSHB | SID255349754 | -0.08 | migration z between -2 and 2; enough cells | 0.87 | 8080 |
| INSYN1 | SID255365472 | -0.16 | migration z between -2 and 2; enough cells | 0.84 | 5382 |
| CCSAP | SID255362725 | 0.9 | migration z between -2 and 2; enough cells | 1.12 | 6310 |
| ENPP6 | SID255362942 | 0.71 | migration z between -2 and 2; enough cells | 1.07 | 6742 |
| FGA | SID255349663 | -1.82 | migration z between -2 and 2; enough cells | 0.46 | 4622 |
| BTBD9 | SID255362234 | -0.01 | migration z between -2 and 2; enough cells | 0.88 | 6630 |
| CHTF18 | SID255359773 | -0.16 | migration z between -2 and 2; enough cells | 0.84 | 5072 |
| CNTN4 | SID255363532 | 0.7 | migration z between -2 and 2; enough cells | 1.06 | 5557 |
| WIPI1 | SID255358380 | -0.11 | migration z between -2 and 2; enough cells | 0.86 | 5860 |
| IGFBP1 | SID255350427 | -0.09 | migration z between -2 and 2; enough cells | 0.86 | 5828 |
| ZFYVE26 | SID255356281 | -1.29 | migration z between -2 and 2; enough cells | 0.55 | 5397 |
| MYO18A | SID255354125 | -1.88 | migration z between -2 and 2; enough cells | 0.4 | 5494 |
| MYO18A | SID255365720 | 0.41 | migration z between -2 and 2; enough cells | 0.99 | 5700 |
| TMEM184B | SID255356492 | -1.12 | migration z between -2 and 2; enough cells | 0.6 | 5886 |
| OR10K2 | SID255365677 | -1.66 | migration z between -2 and 2; enough cells | 0.44 | 4492 |
| ZMYND12 | SID255361245 | -0.76 | migration z between -2 and 2; enough cells | 0.68 | 4606 |
| KDM4D | SID255358782 | 0.3 | migration z between -2 and 2; enough cells | 0.97 | 5230 |
| MALT1 | SID255355421 | -0.62 | migration z between -2 and 2; enough cells | 0.68 | 4458 |
| SFTPA1 | SID255352385 | 0.22 | migration z between -2 and 2; enough cells | 0.94 | 5616 |
| SFTPA1 | SID255366149 | 0.6 | migration z between -2 and 2; enough cells | 0.92 | 4182 |

Entries above whose target name begins with F or f (2):
| gene | PubChem SID | migration robust z-score | migration class with cell-count check | migration relative to mock | nuclei per well, duplicate mean |
| --- | --- | --- | --- | --- | --- |
| FSHB | SID255349754 | -0.08 | migration z between -2 and 2; enough cells | 0.87 | 8080 |
| FGA | SID255349663 | -1.82 | migration z between -2 and 2; enough cells | 0.46 | 4622 |
